From the supplement of paper PMC3334620
The full ranking holds about 33,000 sequences; the median of “E-score (-0.5 to 0.5)” is about -0.016, and the highest 2% start at about 0.3. This is one part of the list.

biological target: T1, Yer184c (UniProt P39961); test: PBM E-score (8-mer binding enrichment) (E-score (-0.5 to 0.5)); higher = stronger / more preferred TF binding; conditions: protein concentration: 100 nM; construct: GST-full length
T1 sequence: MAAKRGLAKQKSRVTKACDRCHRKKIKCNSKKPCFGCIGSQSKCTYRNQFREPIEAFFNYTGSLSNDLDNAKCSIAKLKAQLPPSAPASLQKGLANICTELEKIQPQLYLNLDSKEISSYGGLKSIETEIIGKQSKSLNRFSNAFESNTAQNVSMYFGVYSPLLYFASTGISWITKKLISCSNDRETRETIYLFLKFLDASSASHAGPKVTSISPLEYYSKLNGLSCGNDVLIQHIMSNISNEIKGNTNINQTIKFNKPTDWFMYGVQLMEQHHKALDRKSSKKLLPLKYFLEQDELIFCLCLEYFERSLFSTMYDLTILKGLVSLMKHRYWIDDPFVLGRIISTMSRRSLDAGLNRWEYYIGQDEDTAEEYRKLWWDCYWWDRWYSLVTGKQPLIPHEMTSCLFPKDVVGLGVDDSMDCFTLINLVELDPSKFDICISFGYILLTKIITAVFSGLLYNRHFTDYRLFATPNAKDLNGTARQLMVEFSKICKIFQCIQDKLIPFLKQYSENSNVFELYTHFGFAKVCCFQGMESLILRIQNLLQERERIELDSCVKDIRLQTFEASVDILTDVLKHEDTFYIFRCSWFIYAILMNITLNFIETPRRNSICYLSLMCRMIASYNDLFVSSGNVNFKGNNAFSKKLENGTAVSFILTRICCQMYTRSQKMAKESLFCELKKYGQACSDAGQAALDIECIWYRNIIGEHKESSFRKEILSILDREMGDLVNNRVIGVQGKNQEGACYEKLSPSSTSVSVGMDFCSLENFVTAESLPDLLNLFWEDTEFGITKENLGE
In short: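 Full-length yeast transcription factors or their DNA-binding domains, GST-tagged and expressed with PURExpress, were applied at about 100-200 nM to universal all-10-mer Agilent arrays. These arrays had been made double-stranded by primer extension on fresh or once-stripped slides. Detection used fluorescent anti-GST, normalisation used masliner, and E-scores for ungapped eight-base words pooled with reverse complements came from the Universal PBM Analysis Suite.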

Sequence	PBM E-score
GCTCACAC	-0.174
ATGCTGGG	-0.0916
GAGATGCA	-0.0644
AGGAGGAG	-0.204
CTTTGATA	0.193
CGGTGTTC	0.19
CAAAAGAA	0.188
CTCTGTGC	-0.153
CCATGCTC	-0.169
CTTGTCTC	0.0611
CAAGATTA	0.104
AAAGCCCC	-0.217
CAAAGCAG	0.0461
AGGGGCGC	-0.17
AAGGAGCC	-0.173
AAACTTTC	0.0692
ACAGGCGT	-0.283
ACTTATAT	0.224
ATCTTTAA	0.268
ATATAAAA	0.278
AGAGGCCG	-0.155
CCGGCACA	0.314
ACGGTTTA	0.0371
ACTTATCT	0.0585
ATTGATGC	0.00101

Some of the entries so far, bar-delimited:
Sequence | PBM E-score
AAACTTTC | 0.0692
ACAGGCGT | -0.283
ACTTATAT | 0.224
ATCTTTAA | 0.268
ATATAAAA | 0.278
AGAGGCCG | -0.155

Continuation.

Sequence	PBM E-score
GCATAACA	-0.024
CGATCGAG	0.184
CACGAGAA	-0.08
GCGGTTAA	0.0539
GACCTAGC	-0.0926
CCATCGGA	0.0759
CTCGTGAA	-0.0324
GCTTTTAC	0.124
GTGAACGA	0.0207
ACTCTAGA	-0.0328
ATCTTGGA	0.0492
GCGGCCGC	0.261
ACACTCAT	0.0657
ACGAAGTC	-0.0791
CATGCCCA	-0.23
ACGAAAGG	0.0428
CCCTAATC	-0.152
ATAAACGA	0.302
AGCGTGTG	-0.00594
CAACGACG	-0.0442
CTGAATCA	-0.0638
GCATGGAC	-0.142
CAGACCGG	0.155
CGAGACAC	-0.0978
GTTGTTTA	0.0968

Sequence	PBM E-score
AGGCCAAC	-0.0363
AAAGCCGT	0.262
CTGAATGA	0.0973
GCACGGGC	-0.128
ATCTTTTA	0.0257
AACCGTTG	0.0405
CGTGGACA	-0.0399
ACGGTCGA	0.0465
CGCATGCG	-0.0045
ACAGGGCC	-0.0849
CTAGGAAC	-0.0607
CTACAGCC	-0.142
AAAACTGC	0.0178
AACGTAAA	0.0325
ATAGGTCC	0.029
ATGATGTG	-0.0294
AGATTTTC	0.144
CGTCAGAC	-0.169
CACGGCAG	0.0946
AACGGCGC	-0.0504
GTCTTTTA	-0.072
CGTCCGAA	0.239
ACGCGTCT	-0.225
GACGTCAA	-0.0915
GCAAGTGC	-0.223

5 entries picked at random from the list so far:
Sequence	PBM E-score
CGATCGAG	0.184
GCTTTTAC	0.124
AGCGTGTG	-0.00594
CAACGACG	-0.0442
AGGGGCGC	-0.17

The list goes on.

Sequence	PBM E-score
AACCCTAA	0.0271
AGCCCCTG	-0.408
ATAGAAGG	-0.104
AGTGCCCG	0.0695
CTGCGCTC	-0.212
ATGTGGCG	-0.161
GTGTATAA	-0.195
GCCCTCGC	-0.152
CCCGGGCC	0.217
CCGACTGA	0.00051
AATAGGGT	-0.0516
CCGACGCC	0.127
CACACTCA	0.168
AGCCTCCC	-0.288
ATACACTA	0.0555
ACACAAAG	-0.00525
CAAGTATG	0.018
TCGAGCGA	0.0474
CCGCACAC	-0.0891
CAAATCAA	0.00381
CCTGATTA	0.0969
AGATCGGA	0.34
AATTGTCC	0.101
ACAGTACA	-0.0103
CAGATATA	0.201

Sequence	PBM E-score
CACGCTCC	-0.187
CGAATCCG	0.269
AGCCTTTC	-0.184
GAAGTCAA	0.0553
ATTCAACA	0.173
CCTTTAAC	0.156
AATCCTTA	-0.0386
ATTCGCGA	-0.0163
CCCCCCCG	-0.398
AAAAGCCT	-0.179
ATAGTCAT	0.0263
CGCCGGCA	0.345
CAAAGGCC	-0.247
ACGGGCCA	-0.131
GACTGTGC	-0.202
CCCCTGCG	-0.338
CCGACCCA	0.0239
AACAGTAC	0.109
CTTGAGGC	-0.148
AAGTACGC	-0.188
ATTGTACA	0.111
TTATGCAA	0.00822
ACGCTGGC	-0.12
ACTGAACG	-0.129
GTGACAGA	0.0748

Sequence	PBM E-score
AGACAGTG	-0.0878
AGACTTTA	-0.00366
AGCACAGA	0.181
GAAATCTA	0.162
AGAATTCT	0.294
CCTGTCGC	-0.17
ATGTCTGG	0.00901
AGGGAATG	-0.206
GTAGTTTA	0.14
CCTTTTTC	0.167
GAATAGCA	-0.0272
GAAACGAC	0.00667
ACCCCGTA	-0.137
AAAAAAAC	0.106
CAAGGACG	-0.207
ACCTAACA	0.142
GCTGCACA	-0.159
ACTTGAGG	-0.26
CAAAAGGA	0.125
AGAGAGCT	-0.195
CCAGGCCG	0.14
CGCACATA	-0.219
AGTTGGGG	-0.135
ATTCAAGA	0.0949
GACGAACA	0.242

Sequence	PBM E-score
GGCAGAAA	0.296
CGCTAGTC	-0.269
GTCCTCAC	-0.111
AAGTACAC	-0.0152
CTCGTCTA	-0.00971
AACGGCTA	0.188
ATAGGCCC	-0.281
AAGCAATA	-0.106
ACATTAAC	0.0339
AGTTCCGC	0.305
ACGAGGAT	-0.132
CTCCTTAC	-0.118
AGCGTCCT	-0.172
GTTTTTCA	0.156
ATCGCATA	0.104
GAAAACCA	-0.0101
ATGGGATA	-0.295
TGACTCAA	-0.0362
ATCCAAAT	0.0417
GCGGGCCC	0.0335
CCCTCTTC	-0.386
ATTCCCAA	-0.0678
